# Source: PubChem BioAssay AID493014 (National Center for Advancing Translational Sciences (NCATS), 2011)
# Hit rate of the full screen: of about 340,000 compounds, about 170 (0.05%) were called active. Inconclusive results, whose numbers are uncertain, are shown with a selection of clear calls. Calls come from the whole dose curve; as a rule, active = well fitted inhibition curve with a large enough effect in the signal ratio, with a control signal flat (not every such curve was filed as active); inconclusive = small, poorly fitted or top-dose-only effect, or effect the other way, or a change in a side signal; inactive = flat fitted curve, though single readings scatter; the % refers to the signal ratio. Potencies beside an inconclusive call are fits to weak or partial responses and may not hold up.
# Test: qHTS Assay to Find Inhibitors of Chronic Active B-Cell Receptor Signaling;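 for activity change, negative = inhibition: plate controls were basal doxycycline-induced cells for no effect and cells given 10 µM MG132 for full effect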
# Details: ABC-DLBCL IkBa-CBG/CBR reporter, luminescence ratio (green luciferase fused to IkBa over red control in TMD8 lymphoma cells), 4 h; activity change, negative = inhibition: at 46.1 µM (top of the series)
# How it was run: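 Concentration-response series (up to 46 uM) were applied to TMD8 dual-reporter cells for 4 h at 37C with doxycycline. Green/red ratio, after filter-overlap correction, defined %Activity; red signal alone was normalised to basal cells and zero luminescence.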
# Potency is the fitted concentration of half-maximal effect.
Structure (SMILES),"activity change, negative = inhibition",Potency
COc1ccc2c(C)cc(SCc3c(C)noc3C)nc2c1,inconclusive: -2.16%,
O=C(NNC(=O)c1ccccc1Br)c1ccc(Cl)cc1,,"inconclusive: 14.1 µM [falling, single point]"
O=C(N/N=C1\CC2CC=CC12)c1ccc(O)cc1 (centres undefined),inconclusive: 280%,
COc1cc(-c2nc3cnccn3c2Nc2c(C)cccc2C)ccc1O,,"inconclusive: 14.6 µM [falling, partial curve, poor fit]"
Cc1ccccc1Nc1nc(N)nc(COC(=O)[C@@H](NC(=O)c2c(F)cccc2F)C(C)C)n1,inconclusive: -2.03%,
CCN(C(=O)COC(=O)c1ccccc1NCCO)c1cccc2ccccc12,inactive: -27.1%,
Cc1ccc(NC(=O)CN(C)C(=O)Nc2ccc(C)cc2)cc1,inconclusive: 4.51%,
S=C(NCc1cccnc1)Nc1cccc2ccccc12,inactive: -0.0531%,
COc1ccc(-c2nnc(SCc3ccc(C(=O)O)cc3)n2C)cc1OC,inactive: 4.34%,
Nc1nc(-c2ccc(Cl)cc2)nnc1-c1ccc(Br)cc1,inconclusive: 253%,
CCC1=Nc2cc(C(=O)NCCCOC)ccc2Sc2ccccc21,,"inconclusive: 7.31 µM [falling, partial curve]"
CCOc1ccc(NC(=O)Nc2cccs2)cc1,inconclusive: -4.5%,
COc1ccc2oc(C(=O)OCC(=O)NCCc3ccccc3)c(C)c2c1,,"inconclusive: 11.6 µM [rising, partial curve, poor fit]"
N/C(=N\OC(=O)Cc1ccccc1)c1cccc(Br)c1,inconclusive: 16.7%,
Clc1ccc(CSc2nnc([C@@H]3CCCN3)o2)cc1,inconclusive: 1.33%,
COc1ccc2oc(=N)c(-c3nnc4n3CCCCC4)cc2c1,inconclusive: 1.89%,
Cc1ccc(NC(=O)CSc2nccn2C2CCCC2)cc1,inconclusive: 19.2%,
C/C(=N\NC(=O)C1(C)CC1(Br)Br)c1cccc(NC(=O)c2ccc(C)o2)c1 (centres undefined),inconclusive: -7.33%,
O=C(CN1CCN(Cc2ccc(F)cc2)CC1)Nc1nc2ccccc2s1,inactive: -13.5%,
CCOc1ccccc1-c1cc(C(=O)N/N=C/c2ccc3c(c2)OCO3)c2ccccc2n1,inactive: -16.4%,
COC(=O)C(Nc1ccccc1Cl)(c1cc(C)c(O)c(C)c1)C(F)(F)F (centres undefined),inconclusive: 22.8%,
COc1ccc(S(=O)(=O)Cc2ccc(C(=O)N3CCN(c4ccccc4)CC3)o2)cc1,inactive: -5.48%,
COC(=O)c1ccc(/C=C2\Oc3ccccc3NC2=O)cc1,,"inconclusive: 14.1 µM [falling, partial curve, poor fit]"
CCOC(=O)/C(=N\NC(=O)c1ccccc1)c1ccccc1,inconclusive: 311%,
O=C(COc1cccc(F)c1)Nc1nc(-c2cccnc2)cs1,inconclusive: -0.108%,
COc1ccc(-n2c3c(c(=O)[nH]c2=O)C(NC(C)=O)(C(F)(F)F)C(=O)N3)cc1 (centres undefined),inactive,
O=C(Nc1cc(S(=O)(=O)Nc2ccc(Cl)cc2)ccc1O)c1ccc(S(=O)(=O)N2CCCCCC2)cc1,inactive: -14.5%,

# An excerpt of these results, as tab-separated lines:
Structure (SMILES)	activity change, negative = inhibition	Potency
COc1ccc(S(=O)(=O)Cc2ccc(C(=O)N3CCN(c4ccccc4)CC3)o2)cc1	inactive: -5.48%	
COC(=O)c1ccc(/C=C2\Oc3ccccc3NC2=O)cc1		inconclusive: 14.1 µM [falling, partial curve, poor fit]
CCOC(=O)/C(=N\NC(=O)c1ccccc1)c1ccccc1	inconclusive: 311%	
O=C(COc1cccc(F)c1)Nc1nc(-c2cccnc2)cs1	inconclusive: -0.108%	
COc1ccc(-n2c3c(c(=O)[nH]c2=O)C(NC(C)=O)(C(F)(F)F)C(=O)N3)cc1 (centres undefined)	inactive	

# (continued)

Structure (SMILES),"activity change, negative = inhibition",Potency
CCC(NC(=O)CC[C@H]1O[C@@H](n2cc(C)c(=O)[nH]c2=O)C[C@@H]1O)c1ccccc1 (some centres undefined),inactive: -1.44%,
O=C(Nc1cccc(O)c1)c1cc(-c2ccco2)on1,inconclusive: 319%,
COC(=O)Cc1ccc(NC(=O)c2ccc(Br)o2)cc1,inconclusive: 10.6%,
S=C(NCCN1CCOCC1)N/N=C/c1c2ccccc2cc2ccccc12,inactive: -9.77%,
COc1ccc(C=O)cc1COc1ccccc1F,inconclusive: -0.337%,
O=C(Nc1cc2nn(-c3ccccc3)nc2cc1Cl)c1ccco1,inconclusive: 14.8%,
CC(=O)c1cccc(Nc2c3c(nc4ccccc24)CCC3)c1,,"inconclusive: 25.1 µM [falling, single point]"
CCN(CC)CCn1c2c(c(SCC(=O)Nc3cc(C)on3)nc1=O)CCCC2,inactive: -3.93%,
COc1ccc(N(C(=O)CNC(=O)c2cccs2)C(C(=O)NCC2CCCO2)c2ccccc2)cc1 (centres undefined),inconclusive: -27.1%,
CCCCOc1ccc(S(=O)(=O)Nc2cccnc2)cc1,inactive: 8.86%,
O=C1CSC(=Nc2ccc(O)cc2)N1,inconclusive: 0.032%,
C=CCn1c(CCC(=O)O)ccc1-c1ccc(OC)cc1,inconclusive: 2.21%,
Cc1ccc(CNC(=O)C2CCN(S(=O)(=O)N3CCCC3)CC2)cc1,inactive: 3.64%,
Cc1c(C=O)c2ccccn2c1C(=O)c1ccccc1Cl,inconclusive: -12.8%,
O=S(=O)(Nc1cc(Cl)ccc1-n1cncn1)c1cc(Br)ccc1Br,inactive: 6.77%,
CC(C)Oc1ccc(NC(=O)CCC(=O)O)cc1,,"inconclusive: 23.1 µM [falling, partial curve]"
C=CCn1c(O)c(C2=c3ccccc3=NC2=O)c2ccccc21,inconclusive: 1.5%,
CC(C)CC(=O)NC(=S)Nc1cccc(NC(=O)c2ccccc2Cl)c1,,"inconclusive: 2.59 µM [falling, partial curve, poor fit]"
Fc1ccc2cnc(-c3ccccc3)c(-c3cccc(C(F)(F)F)c3)c2c1,inconclusive: 16.7%,
COc1cccc(/C=N/NC(=O)c2[nH]nc3c2CCc2ccccc2-3)c1O,,"inconclusive: 8.2 µM [cytotoxic, partial curve]"
O=c1c2cc3c(=O)n(-c4ccccc4O)c(=O)c3cc2c(=O)n1-c1ccccc1O,,"inconclusive: 22.4 µM [falling, partial curve]"
Cc1cccc(Cc2c(C)nc3c(C(=O)N4CCN(Cc5ccc6c(c5)OCO6)CC4)cnn3c2C)c1,inconclusive: -3.16%,
CCOc1cccc(-c2nc(C(N)=O)c3[nH]c(=O)n(-c4cccc(Cl)c4)c3n2)c1O,inconclusive: -22.6%,
Cc1ccccc1Nc1nc(N)nc(COC(=O)C(NC(=O)c2ccco2)C(C)C)n1 (centres undefined),inconclusive: -19%,
COc1cc(/C=N/NC(=O)c2ccc(CSc3nc4ccccc4[nH]3)cc2)cc(OC)c1OC,inactive: -14.5%,
O=C(c1ccc2c3c(cccc13)CC2)C1CCCN(Cc2cccnc2)C1 (centres undefined),inconclusive: -20.5%,
Cc1cc(NC(=O)CSCC(=O)N2CCN(c3cccc(C)c3C)CC2)no1,inactive: -9.33%,
